Results deposited as PubChem BioAssay AID1259424 (University of Nebraska Medical Center, 2018).
The whole screen tested about 14,000 reagents; below is an unselected part. 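Higher correlation or smaller distance means closer resemblance to KSR1 loss; control wells, including KSR1 knockdowns, recur on many plates.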 Not all columns of the deposit are shown. No sequences are given here. Not stated in the record: the time to read-out.

Test: 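Rank knockdowns across the genome by resemblance to the KSR1 depletion profile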 (primary screen)
Cell system: human HCT116 colon cancer cells
Reagent: siRNA pool against human genes, 50 nM
Measurement: 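Six signature mRNAs by branched-DNA multiplex assay, scaled to two housekeeping genes and non-targeting median, log2; matched to mean KSR1 knockdown profile by Pearson correlation and euclidean distance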
Reading the numbers: mean correlation with KSR1 profile: higher = expression change more like KSR1 knockdown

Knock-down of GGH (gamma-glutamyl hydrolase) came out at: mean correlation with KSR1 profile 0.499. For LRRC19 (leucine rich repeat containing 19), the values are mean correlation with KSR1 profile 0.903. Knock-down of FLRT3 (fibronectin leucine rich transmembrane protein 3) came out at: mean correlation with KSR1 profile -0.191. Silencing of GRAMD1A (GRAM domain containing 1A) resulted in: mean correlation with KSR1 profile -0.612. Against OPN5 (opsin 5), the entry reads mean correlation with KSR1 profile 0.708. Silencing of RPL23AP32 (ribosomal protein L23a pseudogene 32) came out at: mean correlation with KSR1 profile 0.326.

Knock-down of BLTP1 (bridge-like lipid transfer protein family member 1) gave: mean correlation with KSR1 profile 0.528. With knock-down of RAB1A (RAB1A, member RAS oncogene family) the results were mean correlation with KSR1 profile -0.407. For B4GALT3 (beta-1,4-galactosyltransferase 3), the entry reads mean correlation with KSR1 profile -0.675. Silencing of SAGE1 (sarcoma antigen 1) gave: mean correlation with KSR1 profile -0.327. Silencing of FGF12 (fibroblast growth factor 12) gave: mean correlation with KSR1 profile 0.339. POLR2C (RNA polymerase II subunit C) scored mean correlation with KSR1 profile 0.655.

CST3 (cystatin C) scored mean correlation with KSR1 profile -0.026. IFIT5 (interferon induced protein with tetratricopeptide repeats 5) gave mean correlation with KSR1 profile 0.348. QNG1 (Q-nucleotide N-glycosylase 1) scored mean correlation with KSR1 profile 0.564. CCL11 (C-C motif chemokine ligand 11) showed mean correlation with KSR1 profile 0.116. For ZNF22 (zinc finger protein 22) the deposit lists mean correlation with KSR1 profile 0.251.

As entered above:
For “mean correlation with KSR1 profile”, LRRC19 (leucine rich repeat containing 19) is entered as 0.903
For “mean correlation with KSR1 profile”, GRAMD1A (GRAM domain containing 1A) has -0.612
Under “mean correlation with KSR1 profile”, QNG1 (Q-nucleotide N-glycosylase 1) is entered as 0.564
CST3 (cystatin C), mean correlation with KSR1 profile: -0.026
FLRT3 (fibronectin leucine rich transmembrane protein 3), mean correlation with KSR1 profile → -0.191
For “mean correlation with KSR1 profile”, BLTP1 (bridge-like lipid transfer protein family member 1) reads 0.528

The listing continues.
STEEP1 (STING1 ER exit protein 1) scored mean correlation with KSR1 profile -0.142. Silencing of RGMA (repulsive guidance molecule BMP co-receptor a) gave: mean correlation with KSR1 profile 0.0919. Against KAT5 (lysine acetyltransferase 5) the deposit lists mean correlation with KSR1 profile -0.278. Knock-down of HVCN1 (hydrogen voltage gated channel 1) resulted in: mean correlation with KSR1 profile 0.252. Depletion of NBPF1 (NBPF member 1) gave: mean correlation with KSR1 profile -0.0349. Silencing of ZNF275 (zinc finger protein 275) gave: mean correlation with KSR1 profile -0.582.

After knock-down of ROGDI (rogdi atypical leucine zipper), the screen gave mean correlation with KSR1 profile -0.0591. Knock-down of VENTX (VENT homeobox) resulted in: mean correlation with KSR1 profile -0.314. Silencing of COCH (cochlin) resulted in: mean correlation with KSR1 profile -0.267. Knock-down of RCN3 (reticulocalbin 3) gave: mean correlation with KSR1 profile 0.0177. Silencing of OR51B4 (olfactory receptor family 51 subfamily B member 4) came out at: mean correlation with KSR1 profile 0.744. For ZNFX1 (zinc finger NFX1-type containing 1), the entry reads mean correlation with KSR1 profile -0.187.

For POU2F2 (POU class 2 homeobox 2) the deposit lists mean correlation with KSR1 profile 0.1. Against OMP (olfactory marker protein), the values are mean correlation with KSR1 profile -0.142. With knock-down of MAPKBP1 (mitogen-activated protein kinase binding protein 1), the record shows mean correlation with KSR1 profile -0.196. After knock-down of TRAF5 (TNF receptor associated factor 5), the record shows mean correlation with KSR1 profile 0.382. Knock-down of NRXN2 (neurexin 2) resulted in: mean correlation with KSR1 profile -0.604. ATP6V1H (ATPase H+ transporting V1 subunit H) scored mean correlation with KSR1 profile -0.41.

Against FRS3 (fibroblast growth factor receptor substrate 3), the entry reads mean correlation with KSR1 profile 0.894.
